{"source": "paper PMC12040169", "about": "(PLOS Biology, 2025)", "note": "Some of the results follow.", "data": [{"test_system": "T1, CTL2-GFP (C. trachomatis L2/434/Bu, GFP-expressing)", "T1 construct": "L2/434/Bu, GFP-expressing", "set-up": "species or system HeLa; Intracellular C. trachomatis growth in HeLa cells, bulk GFP fluorescence relative to DMSO", "details": "bulk GFP, single well; 28.5 h, 10 µM; inhibitor", "units": {"% of control remaining": "%"}, "values": [{"smiles": "O=C(NCc1ccco1)c1ccc2c(=O)n(-c3ccccc3)c(=O)[nH]c2c1", "note": "[CBK287823]", "% of control remaining": 128.84}, {"smiles": "O=c1[nH]nc2c(SCc3ccccc3)nccn12", "note": "[CBK288440]", "% of control remaining": 110.107}, {"smiles": "O=C(O)Cc1cc2c(n1Cc1ccc(F)cc1)CCCC2=O", "note": "[CBK283866]", "% of control remaining": 120.961}, {"smiles": "CCC(C)NC(=O)C1CCC(=O)N1Cc1ccc(C)cc1", "note": "(stereo not shown) [CBK294470]", "% of control remaining": 133.288}, {"smiles": "Cc1ccc(S(=O)(=O)NC(C)(C)CSc2nncn2N)cc1", "note": "[CBK266297]", "% of control remaining": 191.928}, {"smiles": "CC(C)(C)OC(=O)N1CC2(C1)N=C1C=C(C(C)(C)C)ON1[C@H]1[C@H](O)[C@H](O)C[C@H]12", "note": "[CBK303240]", "% of control remaining": 154.445}, {"smiles": "CCOc1cc(C)ccc1S(=O)(=O)n1nnc2ccccc21", "note": "[CBK287796]", "% of control remaining": 113.924}, {"smiles": "COc1ccc(C2C=C(c3ccc(OC)c(OC)c3)Nc3ncnn32)c(OC)c1", "note": "(stereo not shown) [CBK293934]", "% of control remaining": 141.027}, {"smiles": "O=C(CC1CCCO1)NS(=O)(=O)c1cccc(-c2nnco2)c1", "note": "(stereo not shown) [CBK305267]", "% of control remaining": 131.029}, {"smiles": "O=C(NCCc1cccs1)C(c1ccccc1)c1ccccc1", "note": "[CBK270275]", "% of control remaining": 136.352}, {"smiles": "CC(=O)Nc1cccc(C(=O)OCC(=O)N2CCCC2)c1", "note": "[CBK306395]", "% of control remaining": 135.157}, {"smiles": "CCN(CC)C(=O)c1sc2ncccc2c1NS(=O)(=O)c1cc(Cl)sc1Cl", "note": "[CBK050615]", "% of control remaining": 114.589}, {"smiles": "Cc1nc(S(=O)(=O)N2CCC(C(=O)N3CCCC3)CC2)cn1C", "note": "[CBK305786]", "% of control remaining": 163.841}, {"smiles": "CCCNCCc1ccc(NC(=O)Nc2cc(F)cc3c2OCOC3)cc1", "note": "[CBK173887T]", "% of control remaining": 115.648}, {"smiles": "Cc1ccc(N(Cc2cc3cccc(C)c3nc2O)C(=O)c2cccc([N+](=O)[O-])c2)cc1", "note": "[CBK265426]", "% of control remaining": 124.182}, {"smiles": "Cc1cc(C[C@@H]2CCC[C@H]2NCc2nc3ccccc3[nH]2)on1", "note": "[CBK284935]", "% of control remaining": 97.4839}, {"smiles": "Cc1ccc(-c2cnc(SCC(N)=O)n2-c2ccccc2)cc1", "note": "[CBK287757]", "% of control remaining": 102.755}, {"smiles": "CC(C)(C)C1CCC(OC(=O)CCC(=O)Nc2nccs2)CC1", "note": "(stereo not shown) [CBK260890]", "% of control remaining": 100}, {"smiles": "Cc1cc(C)c2[nH]c(C)c(CC(=O)N(C)CCN(C)C)c2c1", "note": "[CBK282731]", "% of control remaining": 131.277}, {"smiles": "CCN(CC)C1=NC(=S)N(C)C(c2ccc(OC)cc2)S1", "note": "(stereo not shown) [CBK006804]", "% of control remaining": 88.7846}, {"smiles": "Cc1ccc(C(=O)Nc2cccc(-c3ccc4nnc(C)n4n3)c2)cc1", "note": "[CBK287683]", "% of control remaining": 125.455}, {"smiles": "Nc1nccc2c1ncn2[C@H]1C[C@@H](O)[C@@H](CO)O1", "note": "[CBK201157]", "% of control remaining": 148.237}]}]}
